In PubChem BioAssay AID1671190 (National Center for Advancing Translational Sciences (NCATS), 2021):
Among all 580,000 compounds or so, about 6,100 (1.1%) were called active. The inconclusive results got no clear call from the source; some entries with a clear call stand among them for comparison. The call rests on the fitted dose curve; in most records, active means well fitted inhibition curve with a large enough effect; inconclusive means small, poorly fitted or top-dose-only effect, or another doubt; inactive means no such curve, though single readings can be large or run the other way. A potency beside an inconclusive call is a rough fit, not a confirmed value.

The chains behind the UniProt entries cited, without tags or fusion partners. Where a name states a change or a piece, a line headed by the entry shows the natural chain unless it says otherwise.
UniProt P18054: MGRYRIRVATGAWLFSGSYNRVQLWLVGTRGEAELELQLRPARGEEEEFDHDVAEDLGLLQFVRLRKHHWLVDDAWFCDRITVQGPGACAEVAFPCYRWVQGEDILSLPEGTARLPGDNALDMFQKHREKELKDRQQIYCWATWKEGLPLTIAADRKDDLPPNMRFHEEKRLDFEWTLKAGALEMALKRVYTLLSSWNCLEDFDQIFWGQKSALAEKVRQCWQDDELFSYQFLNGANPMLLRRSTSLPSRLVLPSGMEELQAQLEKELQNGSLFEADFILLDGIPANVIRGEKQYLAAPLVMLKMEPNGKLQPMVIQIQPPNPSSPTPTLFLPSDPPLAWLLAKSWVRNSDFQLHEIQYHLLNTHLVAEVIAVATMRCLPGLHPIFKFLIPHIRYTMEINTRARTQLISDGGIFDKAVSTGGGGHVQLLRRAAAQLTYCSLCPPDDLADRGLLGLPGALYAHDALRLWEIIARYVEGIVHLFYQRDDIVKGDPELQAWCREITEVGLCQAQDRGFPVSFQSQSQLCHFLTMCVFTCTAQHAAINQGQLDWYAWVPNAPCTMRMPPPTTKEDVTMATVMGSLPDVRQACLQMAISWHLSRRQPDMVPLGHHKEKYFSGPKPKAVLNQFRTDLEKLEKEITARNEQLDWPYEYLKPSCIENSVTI

The compounds below were run against Polyunsaturated fatty acid lipoxygenase ALOX12 (Homo sapiens) (UniProt P18054) (assay: Primary qHTS assay for inhibitors of human arachidonate 12S-lipoxygenase (ALOX12): Round 2). Conditions: purified 12hLO, xylenol orange hydroperoxide absorbance; series mostly up to 108 µM.
How it was run: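 Hydroperoxide product was detected by ferrous iron/xylenol orange as the 573 to 405 nm absorbance ratio. Arachidonic acid at 40 uM (final) was turned over for 30 min at room temperature by 150 nM human 12hLO, pH 7.0 Hepes buffer, after 15 min compound preincubation.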
Potency means the concentration at half of the fitted maximal effect.

Compound	Potency
Nc1ccn([C@@H]2O[C@H](C(=O)Nc3ccc(Oc4ccccc4)nc3)[C@@H](O)[C@H]2O)c(=O)n1	inconclusive: 3.16 µM [inhibitor, full curve, poor fit]
NC(=O)c1ccc(O[C@@H]2COCC[C@H]2NC(=O)CN2CCOC2=O)cc1	inactive
COC(=O)[C@@]1(C)[C@H]2C(=O)N(C)C(=O)[C@H]2[C@H]2CN=C(SCC(=O)c3ccccc3)N21	inconclusive: 44.7 µM [inhibitor, partial curve, poor fit]
Cc1cccc(NC(=S)N/N=C(\c2ccccc2)C(C)C)c1	inconclusive: 44.7 µM [inhibitor, partial curve, poor fit]
Cc1cccc(C)c1NC(=O)C1CCCN(c2cnc3ccccc3n2)C1 (stereo unspecified)	inconclusive: 44.7 µM [inhibitor, partial curve, poor fit]
Cc1ccc(C2=NS(=O)(=O)N(C)C(C(=O)Nc3cccc(O)c3)=C2)cc1	inconclusive: 50.1 µM [inhibitor, partial curve, poor fit]
CCCCCCN1C[C@@H](n2cc(C3CC3)nn2)[C@H](O)C[C@@H]1c1ccc(OC)cc1	inconclusive: 50.1 µM [inhibitor, partial curve, poor fit]
Cc1ccc(S(=O)(=O)N(CCC(=O)Nc2ccc(OC(F)(F)F)cc2)c2ccccc2)cc1	inconclusive: 35.5 µM [inhibitor, full curve, poor fit]
CN(CC(C#N)CCC#N)C1CCCCCC1 (stereo unspecified)	inconclusive: 79.4 µM [inhibitor, single point]
CO[C@H]1C(=O)N(C2CCN(C(=O)c3ccnn3C)CC2)[C@H]1c1ccncc1	inconclusive: 5.01 µM [inhibitor, full curve]
O=C(c1cccc(N2C(=O)C3C4C=CC(C4)C3C2=O)c1)N1CCN(c2ccccc2Cl)CC1 (stereo unspecified)	inactive
CN(Cc1ccccc1)C(=O)c1ccc2c(c1)N(Cc1ccc(Cl)cc1)C(=O)c1ccccc1S2=O (stereo unspecified)	inconclusive: 28.2 µM [inhibitor, partial curve, poor fit]
CCCOc1ccccc1C(=O)Nc1nc2c(s1)CCCC2	inconclusive: 100 µM [inhibitor, partial curve, poor fit]
O=C(COC(=O)C1CCCCC1C(=O)N1CCc2ccccc21)NCc1ccco1 (stereo unspecified)	inconclusive: 39.8 µM [inhibitor, single point]
Cc1nnc(N2CCC(C(=O)NCc3cccc(Cl)c3)CC2)c2nn(-c3ccccc3)c(C)c12	inconclusive: 141 µM [inhibitor, partial curve, poor fit]
COc1ccc(S(=O)(=O)Nc2c(O)ccc3ccccc23)cc1OC	inconclusive: 141 µM [inhibitor, single point]
Cn1cc(Br)c(C(=O)Nc2sc3c(c2C(N)=O)CCC3)n1	inconclusive: 25.1 µM [inhibitor, single point]
Cc1cccc(NC(=O)/C(C#N)=C/c2cccc([N+](=O)[O-])c2)n1	inconclusive: 44.7 µM [inhibitor, partial curve, poor fit]
COc1cccc(NS(=O)(=O)c2ccc3[nH]cc(C(=O)N(C)Cc4ccco4)c(=O)c3c2)c1	inconclusive: 56.2 µM [inhibitor, partial curve, poor fit]
O=C(CSc1nnc(SCc2ccccc2)s1)N/N=C/C=C\c1ccco1	active: 17.8 µM
CC1(C)CC(CCN2CCC(Cc3ccccc3)CC2)(c2cccc(C(F)(F)F)c2)CCO1 (stereo unspecified)	inconclusive: 0.355 µM [inhibitor, full curve, poor fit]

Compound	Potency
O=C(COC(=O)C1CC2CCCC(C1)C2=O)Nc1ccc(C(F)(F)F)cc1[N+](=O)[O-] (stereo unspecified)	inactive
CCCCN(CC)C(=O)NNC(=O)C(C)Oc1ccc(C#N)cc1 (stereo unspecified)	inactive
COCC1CCCN(C(=O)c2cc(COc3cccc4cccnc34)on2)C1 (stereo unspecified)	inconclusive: 39.8 µM [inhibitor, single point]
Cc1c(S(=O)(=O)Nc2cccc3ccccc23)c(=O)n(C)c(=O)n1C	inconclusive: 63.1 µM [inhibitor, partial curve, poor fit]
Cc1ccc(C(=O)ONC(=O)c2ccc(Cl)cc2)cc1[N+](=O)[O-]	inconclusive: 25.1 µM [inhibitor, partial curve, poor fit]
COc1ccc(/C=N/NC(=O)CCSc2nc3ccccc3s2)cc1	inactive
CN(C)c1ccc(C(=O)N2CCC(Cc3noc(-c4ccccc4)n3)C2)cc1 (stereo unspecified)	inactive
CCCCN(C(=O)CCC(=O)O)C1CC(=O)N(c2ccc(OCCC)cc2)C1=O (stereo unspecified)	inactive
Cc1cc(Oc2ccc3c(-c4ccccn4)noc3n2)ccc1F	inconclusive: 11.2 µM [inhibitor, full curve]
O=C(c1ccc(Cl)nc1)N1CCn2c(nn(-c3ccc(F)cc3)c2=O)C1	inactive
FC(F)C(F)(F)Oc1cccc(Nc2nccn3c(-c4cccc5ccccc45)cnc23)c1	inconclusive: 100 µM [inhibitor, partial curve, poor fit]
FC(F)(F)c1cccc(Cn2cnc(NC(=S)NCCc3ccccc3)n2)c1	inconclusive: 2.24 µM [inhibitor, full curve, poor fit]
O=C1OCCN1C(=O)[C@H]1[C@H](c2ccc(Cl)cc2)C(c2ccccc2)=NN1c1ccc(Br)cc1	inconclusive: 89.1 µM [inhibitor, single point]
Cc1ccc(O)c(C(=O)C/C(=N/O)C(F)(F)C(F)F)c1	inactive
c1ccc(-c2noc(-c3ccc4ccccc4c3)n2)cc1	inactive
COc1ccc(CCNC(=S)Nc2ccc(C(C)C)cc2)cc1	active: 39.8 µM
COc1cccc(OCCCOc2ccccc2/C=N/NC(=O)c2cccc(Cl)c2)c1	inactive
CCCCOc1ccc(NC(=O)c2ccccc2)c2cccnc12	inactive
CCOC(=O)C1=C(CS(=O)(=O)c2ccc(F)c(C)c2)NC(=O)NC1c1ccc(F)c(F)c1 (stereo unspecified)	inconclusive: 112 µM [inhibitor, partial curve, poor fit]
O=C(NCc1ccccc1Cl)C(=O)Nc1cccc2[nH]ccc12	inconclusive: 89.1 µM [inhibitor, single point]

Molecules listed so far with an NH in an aromatic ring, in the order listed:
Compound	Potency
COc1cccc(NS(=O)(=O)c2ccc3[nH]cc(C(=O)N(C)Cc4ccco4)c(=O)c3c2)c1	inconclusive: 56.2 µM [inhibitor, partial curve, poor fit]
O=C(NCc1ccccc1Cl)C(=O)Nc1cccc2[nH]ccc12	inconclusive: 89.1 µM [inhibitor, single point]
